Results taken from the supplement of paper PMC11006884.
Only a part is listed here, and it is no random draw.

compound: COC(=O)C#Cc1ccccc1 [methyl 3-phenylpropiolate]; test: log2 ratio of iodoacetamide-alkyne labeling of the cysteine site, DMSO over compound (competition); higher = stronger covalent engagement of the cysteine by the compound, active = 1 or more; details: 500 µM; treatment time 1 h; system: HEK293T cell lysate
In short: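 Electrophile (500 µM) or vehicle was added to HEK293T lysate (2 mg/mL) for 1 h at ambient temperature before iodoacetamide alkyne labelling (1 h) and click coupling to sCIP-TMT reagents. After pooling, overnight trypsin digestion at 37 °C, streptavidin enrichment and acid elution, peptides were measured by Orbitrap Eclipse LC-MS/MS with FAIMS and quantified in FragPipe. Each cysteine's log2 competition ratio compares mean control-channel with mean compound-channel reporter intensity, control over compound. Data came from duplicate channels across three replicates, excluding cysteines quantified in only one replicate.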

log2 ratio of iodoacetamide-alkyne labeling, inactive:
TTC1 C28 (UniProt Q99614) 0.272, DDX50 C633 (UniProt Q9BQ39) -0.0901, ZNF512 C540 (UniProt Q96ME7) 0.328, MACROD1 C186 (UniProt Q9BQ69) 0.109, PYURF C60 (UniProt Q96I23) 0.242, CRBN C287 (UniProt Q96SW2) 0.13, YME1L1 C433 (UniProt Q96TA2) -0.0482, TUBA1C C376 (UniProt Q9BQE3) 0.579, NACC1 C416 (UniProt Q96RE7) 0.13, DOCK7 C457 (UniProt Q96N67) 0.309, L3MBTL3 C169 (UniProt Q96JM7) 0.681, PPP1R10 C48 (UniProt Q96QC0) 0.219, PURB C238 (UniProt Q96QR8) 0.179, SUCLG2 C162 (UniProt Q96I99) 0.437, AKAP9 C2571 (UniProt Q99996) 0.309, IWS1 C749 (UniProt Q96ST2) 0.712, KIF2C C154 (UniProt Q99661) 0.788, ITCH C57 (UniProt Q96J02) 0.127, TTC1 C149 (UniProt Q99614) 0.156, RANBP9 C610 (UniProt Q96S59) 0.53, PURB C17 (UniProt Q96QR8) 0.596, DNAJC2 C394 (UniProt Q99543) -0.101, RANBP9 C719 (UniProt Q96S59) 0.16, SCYL1 C210 (UniProt Q96KG9) -0.0672, TBCB C83 (UniProt Q99426) -0.0452, DOK1 C115 (UniProt Q99704) 0.357, DDX50 C417 (UniProt Q9BQ39) 0.438, RNF5 C30 (UniProt Q99942) 0.0657, VPS39 C681 (UniProt Q96JC1) 0.0205, RBM14 C90 (UniProt Q96PK6) 0.108, PSMB7 C87 (UniProt Q99436) 0.421, ELAC2 C51 (UniProt Q9BQ52) 0.178, ZFR C5 (UniProt Q96KR1) 0.575, POP1 C745 (UniProt Q99575) 0.439, CRBN C78 (UniProt Q96SW2) 0.133, GRWD1 C11 (UniProt Q9BQ67) 0.413, FAM118B C93 (UniProt Q9BPY3) 0.0168
